Test results: the supplement of paper PMC10849652
This is one part of the list.

Sequences of proteins named here, by UniProt entry; tags and fusion partners are left off. A change or cut given only in a name is not applied to a line headed by its entry.
UniProt O15254: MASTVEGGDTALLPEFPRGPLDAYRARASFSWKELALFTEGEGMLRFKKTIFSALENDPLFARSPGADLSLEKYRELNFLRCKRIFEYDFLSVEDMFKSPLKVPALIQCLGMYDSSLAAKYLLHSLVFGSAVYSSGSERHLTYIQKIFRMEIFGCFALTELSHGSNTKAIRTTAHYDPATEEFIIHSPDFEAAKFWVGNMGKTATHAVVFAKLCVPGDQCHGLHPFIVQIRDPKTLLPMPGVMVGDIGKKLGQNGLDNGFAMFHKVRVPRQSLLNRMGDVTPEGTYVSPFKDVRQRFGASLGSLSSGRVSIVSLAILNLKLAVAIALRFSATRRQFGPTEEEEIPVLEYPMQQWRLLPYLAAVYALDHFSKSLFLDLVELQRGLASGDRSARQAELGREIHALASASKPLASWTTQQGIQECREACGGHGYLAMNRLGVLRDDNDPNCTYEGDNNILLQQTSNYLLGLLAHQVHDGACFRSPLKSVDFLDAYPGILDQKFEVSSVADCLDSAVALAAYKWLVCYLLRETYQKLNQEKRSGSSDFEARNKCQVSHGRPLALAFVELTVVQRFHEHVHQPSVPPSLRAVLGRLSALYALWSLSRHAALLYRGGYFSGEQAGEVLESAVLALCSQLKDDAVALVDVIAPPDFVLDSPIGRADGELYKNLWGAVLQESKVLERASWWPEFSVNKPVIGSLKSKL
UniProt Q9BR61: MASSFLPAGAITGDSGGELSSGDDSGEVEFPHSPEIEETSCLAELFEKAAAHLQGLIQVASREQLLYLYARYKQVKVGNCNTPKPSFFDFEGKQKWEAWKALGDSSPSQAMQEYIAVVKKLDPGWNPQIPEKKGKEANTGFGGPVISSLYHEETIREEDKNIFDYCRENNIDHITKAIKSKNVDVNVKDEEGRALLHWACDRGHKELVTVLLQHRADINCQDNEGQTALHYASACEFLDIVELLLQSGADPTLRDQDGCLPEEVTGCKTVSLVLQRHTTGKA
UniProt Q96EY9: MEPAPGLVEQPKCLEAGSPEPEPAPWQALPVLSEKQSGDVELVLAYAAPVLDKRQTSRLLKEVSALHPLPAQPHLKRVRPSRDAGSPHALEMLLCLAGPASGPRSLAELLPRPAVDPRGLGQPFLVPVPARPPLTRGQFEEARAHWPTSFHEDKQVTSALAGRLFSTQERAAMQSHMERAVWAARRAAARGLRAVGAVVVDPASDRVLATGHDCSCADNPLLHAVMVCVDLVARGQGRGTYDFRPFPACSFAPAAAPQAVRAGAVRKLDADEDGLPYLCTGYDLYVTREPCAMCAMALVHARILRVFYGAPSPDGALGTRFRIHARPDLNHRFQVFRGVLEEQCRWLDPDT
UniProt Q9H3P7: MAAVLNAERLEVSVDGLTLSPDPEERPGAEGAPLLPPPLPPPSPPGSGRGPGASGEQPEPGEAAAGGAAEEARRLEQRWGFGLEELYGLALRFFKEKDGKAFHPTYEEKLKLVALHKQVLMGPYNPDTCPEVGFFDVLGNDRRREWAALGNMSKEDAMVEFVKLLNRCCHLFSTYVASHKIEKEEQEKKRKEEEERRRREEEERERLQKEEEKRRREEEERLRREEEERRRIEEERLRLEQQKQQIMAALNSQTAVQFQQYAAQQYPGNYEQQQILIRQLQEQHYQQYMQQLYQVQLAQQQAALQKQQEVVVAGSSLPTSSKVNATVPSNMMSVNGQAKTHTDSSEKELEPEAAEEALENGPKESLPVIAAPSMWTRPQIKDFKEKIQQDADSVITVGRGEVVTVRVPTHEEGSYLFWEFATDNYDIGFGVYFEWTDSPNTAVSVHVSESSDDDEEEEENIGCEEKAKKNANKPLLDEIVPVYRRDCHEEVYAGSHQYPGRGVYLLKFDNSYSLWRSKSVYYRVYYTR
UniProt Q9UG63: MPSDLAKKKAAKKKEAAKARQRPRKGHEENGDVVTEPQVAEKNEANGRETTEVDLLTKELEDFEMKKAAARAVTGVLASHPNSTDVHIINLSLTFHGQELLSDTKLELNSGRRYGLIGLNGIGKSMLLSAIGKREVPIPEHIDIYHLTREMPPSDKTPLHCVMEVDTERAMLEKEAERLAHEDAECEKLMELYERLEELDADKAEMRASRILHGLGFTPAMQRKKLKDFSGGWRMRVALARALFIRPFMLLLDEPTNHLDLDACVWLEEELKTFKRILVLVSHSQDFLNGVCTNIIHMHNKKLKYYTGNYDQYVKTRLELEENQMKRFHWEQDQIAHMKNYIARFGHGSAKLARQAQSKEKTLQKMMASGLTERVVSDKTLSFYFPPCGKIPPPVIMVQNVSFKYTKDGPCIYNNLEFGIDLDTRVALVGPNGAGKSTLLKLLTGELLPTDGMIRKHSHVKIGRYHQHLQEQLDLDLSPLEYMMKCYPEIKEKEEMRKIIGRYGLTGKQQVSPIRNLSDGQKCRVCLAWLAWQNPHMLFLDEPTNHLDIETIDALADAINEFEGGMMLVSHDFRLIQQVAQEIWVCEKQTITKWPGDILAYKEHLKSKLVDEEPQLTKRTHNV
UniProt Q9H7C9: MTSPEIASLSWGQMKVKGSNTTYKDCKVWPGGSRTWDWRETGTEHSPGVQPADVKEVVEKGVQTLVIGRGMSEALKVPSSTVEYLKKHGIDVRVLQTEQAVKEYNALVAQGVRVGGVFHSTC
UniProt P33121: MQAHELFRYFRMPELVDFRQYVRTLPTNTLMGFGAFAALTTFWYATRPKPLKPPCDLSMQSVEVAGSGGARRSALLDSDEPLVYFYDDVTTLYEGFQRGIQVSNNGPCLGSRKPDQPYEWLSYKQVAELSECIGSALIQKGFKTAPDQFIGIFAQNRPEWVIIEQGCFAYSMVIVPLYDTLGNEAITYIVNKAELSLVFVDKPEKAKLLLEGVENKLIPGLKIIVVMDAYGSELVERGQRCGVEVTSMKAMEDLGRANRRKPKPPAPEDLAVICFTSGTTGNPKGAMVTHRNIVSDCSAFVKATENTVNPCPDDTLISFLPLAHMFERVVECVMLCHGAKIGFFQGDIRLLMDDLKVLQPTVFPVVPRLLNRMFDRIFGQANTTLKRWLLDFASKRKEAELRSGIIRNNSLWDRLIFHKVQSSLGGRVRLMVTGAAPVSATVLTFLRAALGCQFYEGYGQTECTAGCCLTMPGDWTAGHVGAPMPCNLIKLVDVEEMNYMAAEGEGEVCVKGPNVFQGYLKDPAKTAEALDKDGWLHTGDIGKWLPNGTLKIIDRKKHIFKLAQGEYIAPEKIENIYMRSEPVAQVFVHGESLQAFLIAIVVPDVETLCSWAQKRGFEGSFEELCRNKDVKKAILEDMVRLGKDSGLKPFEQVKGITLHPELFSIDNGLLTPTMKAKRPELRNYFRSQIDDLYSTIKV
UniProt Q9NRG9: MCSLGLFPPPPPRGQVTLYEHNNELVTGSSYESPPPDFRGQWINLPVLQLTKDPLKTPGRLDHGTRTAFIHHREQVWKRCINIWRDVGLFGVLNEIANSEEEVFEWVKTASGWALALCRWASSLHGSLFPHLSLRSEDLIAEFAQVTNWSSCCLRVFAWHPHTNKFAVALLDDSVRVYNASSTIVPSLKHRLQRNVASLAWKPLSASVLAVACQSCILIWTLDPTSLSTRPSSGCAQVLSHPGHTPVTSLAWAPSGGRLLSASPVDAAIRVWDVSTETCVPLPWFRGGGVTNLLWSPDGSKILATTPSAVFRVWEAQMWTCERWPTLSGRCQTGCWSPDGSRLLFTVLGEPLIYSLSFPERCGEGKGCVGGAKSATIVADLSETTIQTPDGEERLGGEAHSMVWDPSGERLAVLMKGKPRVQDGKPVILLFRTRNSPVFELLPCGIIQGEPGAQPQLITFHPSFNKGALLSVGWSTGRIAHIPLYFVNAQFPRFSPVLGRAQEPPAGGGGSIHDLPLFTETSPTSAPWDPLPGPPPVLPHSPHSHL
UniProt Q96GS6: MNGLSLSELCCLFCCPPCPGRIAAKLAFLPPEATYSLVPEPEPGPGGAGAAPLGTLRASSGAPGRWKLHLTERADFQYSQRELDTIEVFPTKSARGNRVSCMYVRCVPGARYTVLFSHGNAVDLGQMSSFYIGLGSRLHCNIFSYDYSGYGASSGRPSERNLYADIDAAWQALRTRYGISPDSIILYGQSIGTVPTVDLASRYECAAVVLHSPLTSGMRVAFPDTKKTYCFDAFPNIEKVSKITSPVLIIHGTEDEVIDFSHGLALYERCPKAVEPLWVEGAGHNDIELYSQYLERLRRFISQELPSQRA
UniProt O96019, whole entry, looked up: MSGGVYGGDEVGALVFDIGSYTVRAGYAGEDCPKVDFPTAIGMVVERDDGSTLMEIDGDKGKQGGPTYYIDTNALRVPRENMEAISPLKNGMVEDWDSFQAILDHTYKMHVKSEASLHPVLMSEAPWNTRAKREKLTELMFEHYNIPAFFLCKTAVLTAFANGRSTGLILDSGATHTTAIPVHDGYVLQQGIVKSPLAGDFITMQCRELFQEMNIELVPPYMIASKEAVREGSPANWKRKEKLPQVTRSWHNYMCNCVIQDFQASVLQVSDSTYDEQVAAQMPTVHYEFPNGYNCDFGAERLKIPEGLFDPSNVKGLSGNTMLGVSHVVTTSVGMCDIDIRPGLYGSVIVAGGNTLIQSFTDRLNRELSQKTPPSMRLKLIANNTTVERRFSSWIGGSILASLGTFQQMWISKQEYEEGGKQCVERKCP
UniProt Q15057: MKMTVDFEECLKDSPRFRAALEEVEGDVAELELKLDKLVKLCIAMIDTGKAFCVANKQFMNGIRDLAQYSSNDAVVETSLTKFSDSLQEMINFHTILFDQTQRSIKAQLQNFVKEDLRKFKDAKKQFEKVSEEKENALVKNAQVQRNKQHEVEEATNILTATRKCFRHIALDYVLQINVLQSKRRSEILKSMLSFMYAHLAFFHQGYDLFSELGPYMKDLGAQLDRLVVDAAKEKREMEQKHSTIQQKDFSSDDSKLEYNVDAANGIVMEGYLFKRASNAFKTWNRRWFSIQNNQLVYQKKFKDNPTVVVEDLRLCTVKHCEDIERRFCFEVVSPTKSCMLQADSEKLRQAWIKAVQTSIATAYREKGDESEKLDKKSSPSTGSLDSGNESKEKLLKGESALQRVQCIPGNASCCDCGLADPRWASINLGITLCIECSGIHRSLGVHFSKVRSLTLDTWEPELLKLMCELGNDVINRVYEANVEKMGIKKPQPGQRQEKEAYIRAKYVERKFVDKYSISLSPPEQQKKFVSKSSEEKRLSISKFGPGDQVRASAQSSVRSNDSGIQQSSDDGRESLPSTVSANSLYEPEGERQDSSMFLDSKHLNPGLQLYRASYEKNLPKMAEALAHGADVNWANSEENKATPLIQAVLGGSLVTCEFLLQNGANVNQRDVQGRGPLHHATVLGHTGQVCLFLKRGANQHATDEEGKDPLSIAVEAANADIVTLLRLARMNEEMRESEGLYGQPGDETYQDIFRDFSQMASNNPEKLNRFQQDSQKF
UniProt Q9NR19, whole entry, looked up: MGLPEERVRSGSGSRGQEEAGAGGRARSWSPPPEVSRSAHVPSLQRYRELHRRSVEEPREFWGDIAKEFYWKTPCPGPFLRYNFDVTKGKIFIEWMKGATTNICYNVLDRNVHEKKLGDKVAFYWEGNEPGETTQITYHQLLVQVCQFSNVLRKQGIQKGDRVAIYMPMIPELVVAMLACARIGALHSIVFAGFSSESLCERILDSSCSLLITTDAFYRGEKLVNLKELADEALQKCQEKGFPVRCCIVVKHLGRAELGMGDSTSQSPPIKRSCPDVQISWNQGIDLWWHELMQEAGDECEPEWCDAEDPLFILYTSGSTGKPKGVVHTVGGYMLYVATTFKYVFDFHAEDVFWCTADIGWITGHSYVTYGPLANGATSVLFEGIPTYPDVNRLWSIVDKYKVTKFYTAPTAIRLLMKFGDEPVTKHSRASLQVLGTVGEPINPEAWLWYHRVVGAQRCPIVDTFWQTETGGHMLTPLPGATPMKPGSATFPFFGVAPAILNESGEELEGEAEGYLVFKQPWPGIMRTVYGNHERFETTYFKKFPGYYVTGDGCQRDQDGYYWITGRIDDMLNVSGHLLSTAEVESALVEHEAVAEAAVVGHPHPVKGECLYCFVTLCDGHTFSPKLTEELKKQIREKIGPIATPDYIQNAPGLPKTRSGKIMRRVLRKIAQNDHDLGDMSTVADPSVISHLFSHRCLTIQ
UniProt Q13685: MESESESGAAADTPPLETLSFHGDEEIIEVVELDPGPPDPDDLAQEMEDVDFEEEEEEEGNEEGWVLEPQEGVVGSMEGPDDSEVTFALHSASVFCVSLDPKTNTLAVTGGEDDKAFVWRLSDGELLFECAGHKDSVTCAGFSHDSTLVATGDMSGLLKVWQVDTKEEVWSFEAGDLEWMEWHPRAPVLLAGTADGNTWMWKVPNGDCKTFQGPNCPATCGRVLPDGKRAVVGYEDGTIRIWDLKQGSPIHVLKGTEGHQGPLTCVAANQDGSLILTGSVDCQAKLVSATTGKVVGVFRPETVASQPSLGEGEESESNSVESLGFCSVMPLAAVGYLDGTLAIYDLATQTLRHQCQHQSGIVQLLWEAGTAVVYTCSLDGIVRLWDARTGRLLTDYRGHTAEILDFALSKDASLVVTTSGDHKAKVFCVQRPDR

Assays:
Assay in all cases: log2 fold change, soluble protein after heating vs DMSO (PISA); higher = thermal stabilisation; K562 cells, 10 uM, 30 min; active = over 0.2 and 3.5 SD of the protein, either way, in both replicates (recomputed)
[1] = compound: C1=CC=C(C=C1)[C@H](COC2=CC3=C(C=C2)NC(=O)N3)NC(=O)C4=CC=CN(C4=O)CC5=CC(=C(C=C5)F)F
Method in brief: (§1)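 K562 cells at 2×10^6 cells/mL were treated with 10 μM compound for 30 min. Aliquots were heated for 3 min across 48°C-58°C, pooled, and extracted in PBS with 0.5% NP-40 at 4°C; soluble protein was the supernatant after 21,000xg for 90 min. Soluble protein was quantified by TMTpro 16plex LC-MS/MS with channel sums equalised, and reported as log2 fold change in thermal stability against DMSO controls, with values from duplicates.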

[2] = compound: CC1=C(SC2=C1C(=N[C@H](C3=NN=C(N32)C)CC(=O)N)C4=CC=C(C=C4)Cl)C
Method in brief: as §1

[3] = compound: CC1=C2C(=CC=C1)N=C(N(C2=O)C3=CC=CC=C3C)CN4C=NC5=C(N=CN=C54)N
Method in brief: as §1

[4] = compound: Cc1sc2c(c1C)C(c1ccc(Cl)cc1)=N[C@@H](CC(=O)OC(C)(C)C)c1nnc(C)n1-2
Method in brief: as §1

[5] = compound: c1ccc([C@@H]2C[C@H]2NC2CCNCC2)cc1
Method in brief: as §1

Measured: log2 fold change

ACTN1 (UniProt H9KV75)
inactive: [1] -0.036 | [2] 0.099 | [3] 0.166 | [4] -0.195 | [5] -0.076

ABHD11 (UniProt Q8NFV4)
inactive: [1] -0.008 | [2] 0.127 | [3] 0.136 | [4] -0.12 | [5] -0.037

ACTR3 (UniProt P61158)
inactive: [1] 0.021 | [2] -0.022 | [3] -0.031 | [4] -0.006 | [5] 0.05

ACTB, A0A2R8Y793
inactive: [1] 0.028 | [2] 0.024 | [3] 0.001 | [4] 0.001 | [5] -0.011

ACOX3 (UniProt O15254)
inactive: [1] 0.015 | [2] 0.238 | [3] -0.185 | [4] 0.131 | [5] 0.077

ABCB7 isoform 2 (UniProt O75027)
inactive: [1] -0.003 | [2] 0.07 | [3] 0.03 | [4] -0.079 | [5] -0.018

ABLIM1 (UniProt O14639)
inactive: [1] -0.073 | [2] -0.039 | [3] 0.102 | [4] -0.015 | [5] -0.011

ACTR6 (UniProt Q9GZN1)
inactive: [1] 0.105 | [2] 0.044 | [3] 0.111 | [4] -0.08 | [5] -0.008

ACBD6 (UniProt Q9BR61)
inactive: [1] -0.033 | [2] 0.087 | [3] 0.1 | [4] -0.072 | [5] 0.073

ACADSB (UniProt P45954)
inactive: [1] -0.019 | [2] 0.096 | [3] 0.015 | [4] 0.06 | [5] -0.04

4 consecutive entries already listed, for reference:
ABLIM1 (UniProt O14639)
inactive: [1] -0.073 | [2] -0.039 | [3] 0.102 | [4] -0.015 | [5] -0.011

ACTR6 (UniProt Q9GZN1)
inactive: [1] 0.105 | [2] 0.044 | [3] 0.111 | [4] -0.08 | [5] -0.008

ACBD6 (UniProt Q9BR61)
inactive: [1] -0.033 | [2] 0.087 | [3] 0.1 | [4] -0.072 | [5] 0.073

ACADSB (UniProt P45954)
inactive: [1] -0.019 | [2] 0.096 | [3] 0.015 | [4] 0.06 | [5] -0.04

Next results.

AASDHPPT (UniProt Q9NRN7)
inactive: [1] -0.031 | [2] 0.073 | [3] 0.076 | [4] 0.002 | [5] 0.008

ADAT3 (UniProt Q96EY9)
inactive: [1] 0.107 | [2] -0.048 | [3] 0.1 | [4] 0.014 | [5] -0.095

ADAM15 (UniProt Q13444)
inactive: [1] -0.041 | [2] 0.059 | [3] 0.096 | [4] 0.08 | [5] 0

ADAD1 (UniProt Q96M93)
inactive: [1] -0.054 | [2] -0.012 | [3] 0.315 | [4] 0.09 | [5] -0.001

ACBD3 (UniProt Q9H3P7)
inactive: [1] -0.01 | [2] 0.04 | [3] 0.034 | [4] 0.001 | [5] -0.02

ABCF1 (UniProt Q8NE71)
inactive: [1] 0.03 | [2] -0.034 | [3] -0.046 | [4] 0.094 | [5] -0.026

ADA (UniProt P00813)
inactive: [1] 0.008 | [2] 0.05 | [3] 0.034 | [4] 0.065 | [5] 0.043

AARS (UniProt P49588)
inactive: [1] -0.011 | [2] 0.041 | [3] 0.016 | [4] -0.01 | [5] -0.014

ACSL4 (UniProt O60488)
inactive: [1] -0.08 | [2] 0.1 | [3] 0.132 | [4] 0.025 | [5] -0.031

ACSL3 (UniProt O95573)
inactive: [1] -0.05 | [2] 0.068 | [3] 0.028 | [4] -0.014 | [5] -0.036

ACSF3 (UniProt Q4G176)
inactive: [1] 0.037 | [2] 0.086 | [3] 0.12 | [4] -0.067 | [5] 0.063

AAR2 (UniProt Q9Y312)
inactive: [1] 0.024 | [2] 0.08 | [3] -0.053 | [4] 0.069 | [5] -0.012

A2M (UniProt P01023)
inactive: [1] 0.043 | [2] -0.134 | [3] 0.052 | [4] 0.072 | [5] 0.181

ACOT8 (UniProt O14734)
inactive: [1] -0.004 | [2] 0.071 | [3] -0.029 | [4] -0.014 | [5] -0.027

ACIN1 (UniProt Q9UKV3)
inactive: [1] 0.003 | [2] 0.095 | [3] 0.038 | [4] 0.023 | [5] -0.018

ABCF2 isoform 2 (UniProt Q9UG63)
inactive: [1] -0.017 | [2] 0.016 | [3] 0.008 | [4] 0.012 | [5] -0.038

ABI2 (UniProt Q9NYB9)
inactive: [1] 0 | [2] 0.038 | [3] 0.021 | [4] -0.034 | [5] -0.03

ACAD9 (UniProt Q9H845)
inactive: [1] 0.012 | [2] 0.028 | [3] 0.031 | [4] 0.022 | [5] 0.009

AAMDC (UniProt Q9H7C9)
inactive: [1] 0.005 | [2] 0.163 | [3] 0.176 | [4] -0.137 | [5] -0.044

ACSL1 (UniProt P33121)
inactive: [1] -0.019 | [2] 0.043 | [3] 0.064 | [4] 0.001 | [5] -0.03

AAAS (UniProt Q9NRG9)
inactive: [1] 0.015 | [2] 0.069 | [3] 0.036 | [4] -0.029 | [5] -0.014

ABHD17A isoform 2 (UniProt Q96GS6)
inactive: [1] 0.029 | [2] 0.079 | [3] 0.122 | [4] -0.148 | [5] -0.012

ABITRAM (UniProt Q9NX38)
inactive: [1] -0.037 | [2] 0.145 | [3] 0.032 | [4] -0.044 | [5] -0.016

ACTN1 (UniProt P12814)
inactive: [1] 0.026 | [2] 0.037 | [3] 0.01 | [4] -0.047 | [5] 0.012

ACTR1B (UniProt P42025)
inactive: [1] -0.049 | [2] 0.105 | [3] 0.034 | [4] 0.028 | [5] -0.029

ACOT7 isoform 7 (UniProt O00154)
inactive: [1] 0.01 | [2] 0.028 | [3] 0.01 | [4] -0.056 | [5] 0.021

ACTL6A (UniProt O96019)
inactive: [1] -0.022 | [2] 0.032 | [3] 0.066 | [4] -0.008 | [5] -0.001

AAK1 (UniProt Q2M2I8)
inactive: [1] 0.02 | [2] 0.039 | [3] 0.083 | [4] -0.217 | [5] -0.017

ABHD12 isoform 2 (UniProt Q8N2K0)
inactive: [1] 0.023 | [2] 0.006 | [3] -0.018 | [4] 0.023 | [5] -0.064

ACO1 (UniProt P21399)
inactive: [1] 0.048 | [2] 0.018 | [3] 0.015 | [4] -0.005 | [5] 0.007

ACTA1 (UniProt P68133)
inactive: [1] 0.016 | [2] 0.034 | [3] 0.009 | [4] 0.005 | [5] 0.032

ACAP2 (UniProt Q15057)
inactive: [1] -0.009 | [2] -0.001 | [3] 0.132 | [4] 0.01 | [5] 0.011

ACSS2 isoform 2 (UniProt Q9NR19)
inactive: [1] -0.012 | [2] 0.043 | [3] 0.074 | [4] -0.002 | [5] -0.021

AAMP (UniProt Q13685)
inactive: [1] -0.015 | [2] -0.013 | [3] 0.014 | [4] -0.032 | [5] 0.021

AARS2 (UniProt Q5JTZ9)
inactive: [1] -0.047 | [2] 0.081 | [3] 0.044 | [4] 0.005 | [5] -0.016

ADAR isoform 4 (UniProt P55265)
inactive: [1] 0.065 | [2] -0.005 | [3] -0.376 | [4] -0.024 | [5] -0.007

ACP1 (UniProt P24666)
inactive: [1] -0.058 | [2] -0.026 | [3] 0.184 | [4] -0.041 | [5] -0.416

ABCF1 (UniProt Q5STZ8)
inactive: [1] 0.032 | [2] 0.031 | [3] 0 | [4] -0.081 | [5] 0.06

ABCB8 (UniProt Q9NUT2)
inactive: [1] -0.029 | [2] 0.075 | [3] 0.047 | [4] 0.015 | [5] -0.002

ABCD3 (UniProt P28288)
inactive: [1] -0.001 | [2] 0.052 | [3] 0.004 | [4] -0.039 | [5] -0.033

ACACB (UniProt O00763)
inactive: [1] -0.044 | [2] -0.053 | [3] 0.025 | [4] 0.084 | [5] 0.007

ACSS1 (UniProt Q9NUB1)
inactive: [1] -0.084 | [2] 0.067 | [3] 0.129 | [4] 0.09 | [5] 0.058

ACADM isoform 2 (UniProt P11310)
inactive: [1] 0.007 | [2] 0.024 | [3] -0.015 | [4] -0.016 | [5] -0.031
